PubChem BioAssay AID652243 | Drosophila RNAi Screening Center, 2013

Test: 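Fly regulators of androgen-dependent reporter output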 (primary screen)
Cell system: Drosophila S2R+ cells
Knock-down reagent: long dsRNA against Drosophila genes
Timing: 72 h (48 h, then 24 h hormone)
Challenge: synthetic androgen R1881 at 10 nM for 24 h
Measured: 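Per-well raw luminescence of the androgen-driven firefly reporter and of the Renilla control, two replicates each, without normalisation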
Reading the numbers: firefly reporter light: higher = more light from androgen-responsive reporter; Renilla control light: higher = more constitutive control signal (cell number, transfection)
Active means: 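Across duplicate plates, a knock-down whose log firefly/Renilla ratio shifted a set fold down or up from the GFP/LacZ control mean was a hit; the downward cut appears as both 1.5 and 3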
Meaning of the calls: active = hit: reporter lowered or raised; inactive = no hit
The screen tested about 24,000 reagents; below is an unselected part of those with a known target gene and a result. In the full data, 246 (1%) got an active call. 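Plates not normalised; calls are printed but the firefly/Renilla ratio behind them is not deposited; fold cut for lowering reported inconsistently.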 The raw values are shown without normalisation. Reagent sequences are not shown. Not stated in the record: the amount of reagent.

target gene | DRSC id | firefly reporter light, replicate 1 | firefly reporter light, replicate 2 | Renilla control light, replicate 1 | Renilla control light, replicate 2 | Outcome
Syngr | DRSC06003 | 2.17e5 | 1.69e5 | 2.11e6 | 2.11e6 | inactive
Rab6 | DRSC03404 | 6.82e5 | 7.50e5 | 1.40e6 | 1.39e6 | inactive
Rab6 | DRSC25636 | 3.58e5 | 2.42e5 | 6.00e5 | 3.27e5 | inactive
ect | DRSC10675 | 4.03e5 | 3.95e5 | 2.28e6 | 2.78e6 | inactive
ect | DRSC11343 | 1.02e5 | 97095 | 2.29e6 | 1.59e6 | inactive
ect | DRSC22357 | 7.02e5 | 7.88e5 | 1.62e6 | 1.21e6 | inactive
ect | DRSC27880 | 6.15e5 | 4.08e5 | 2.23e6 | 1.60e6 | inactive
CG31204 | DRSC15106 | 1.49e5 | 1.56e5 | 1.35e6 | 2.57e6 | inactive
CG31204 | DRSC28757 | 4.97e5 | 4.12e5 | 1.63e6 | 1.75e6 | inactive
Atxn7 | DRSC23138 | 8.30e5 | 9.02e5 | 1.41e6 | 1.60e6 | inactive
hpRNA:CR32207 | DRSC09616 | 1.44e5 | 1.43e5 | 3.47e5 | 3.30e5 | inactive
sNPF-R | DRSC10836 | 3.04e5 | 2.01e5 | 3.02e6 | 2.61e6 | inactive
CG4896 | DRSC00671 | 7.99e5 | 1.04e6 | 1.70e6 | 1.39e6 | inactive
CG4896 | DRSC24570 | 7.50e5 | 7.15e5 | 8.63e5 | 9.26e5 | inactive
RpL13 | DRSC03416 | 2.37e5 | 2.57e5 | 1.95e6 | 2.09e6 | inactive

Next part, starting with the last 3 of the part before.
target gene | DRSC id | firefly reporter light, replicate 1 | firefly reporter light, replicate 2 | Renilla control light, replicate 1 | Renilla control light, replicate 2 | Outcome
CG4896 | DRSC00671 | 7.99e5 | 1.04e6 | 1.70e6 | 1.39e6 | inactive
CG4896 | DRSC24570 | 7.50e5 | 7.15e5 | 8.63e5 | 9.26e5 | inactive
RpL13 | DRSC03416 | 2.37e5 | 2.57e5 | 1.95e6 | 2.09e6 | inactive
CG13116 | DRSC02214 | 3.11e5 | 3.66e5 | 3.24e6 | 3.15e6 | inactive
CG13116 | DRSC21945 | 7.54e5 | 6.75e5 | 2.03e6 | 2.02e6 | inactive
CG13116 | DRSC26916 | 2.72e5 | 3.47e5 | 3.66e5 | 4.52e5 | inactive
Nf-YA | DRSC23126 | 4.13e5 | 6.37e5 | 5.80e5 | 8.23e5 | inactive
msl-3 | DRSC11371 | 1.88e5 | 1.20e5 | 2.50e6 | 1.63e6 | inactive
CaMKII | DRSC17214 | 1.08e5 | 97516 | 7.91e5 | 5.20e5 | inactive
CaMKII | DRSC36643 | – | – | – | – | inactive
CaMKII | DRSC36644 | – | – | – | – | inactive
CG7872 | DRSC20062 | 52741 | 40383 | 4.11e5 | 5.24e5 | inactive
